At least one compound was matched to its structure with a doubt left.
Test system: single yeast cell (intracellular carboxylesterase, efflux process)
Experiment: Single-cell FDA metabolism (influx/hydrolysis/efflux), curve fitting to enzymatic model
Type: cell-based, Sacchomyces cereviase
Conditions: cell 4, T0 2560 s, self-control mode
From the text: In one of the embodiments of the invention, to study a model of a yeast metabolic process using the microfluidic device of the invention, the inventors selected a cell-permeable fluorogenic substrate, fluorescein diacetate (FDA), which is normally used to determine cell viability^42. After influx of FDA into a yeast cell, the intracellular enzyme carboxylesterase^43 hydrolyzes FDA to fluorescein, which will then be excreted from the cell (through efflux).
To examine the cells in an embodiment of the microfluidic device, the device was placed on the translation stage of an inverted microscope and simultaneous optical observation and fluorescent measurement were carried out. To carry out fluorescent intensity calibration in the microfluidic device, polystyrene beads (6 μm diameter, InSpeck™ Green, Molecular Probes) were used. Three-dimensional liquid flow control was accomplished by either electric or fluid potential. […]
[formula] The notations are A: extracellular FDA (μM); B: intracellular FDA (μM); C: intracellular fluorescein (μM); S: cell surface area (μm^2) and V: cell volume (μm^3), as calculated from the diameter (μm) of the cell (D1) and its bud (D2); kb: transport coefficient (μm s^−1); Vm (μM s^−1) and Km (μM): Michaelis-Menten kinetic parameters for the carboxylesterase; Ve (μM μm s^−1) and Ke (μM): Michaelis-Menten kinetic parameters for the efflux process. […]

O=C1OC2(c3ccc(O)cc3Oc3cc(O)ccc32)c2ccccc21 [fluorescein]
Ve (efflux process): 0.65 μM μm s^−1

Source: patent publication US8124032B2, “Microfluidic device and method of using same” (priority 2004, dated 2012)
